Hit rate of the full screen: of about 320,000 compounds, about 740 (0.23%) were called active. Inconclusive means that the source gave no clear call. Such entries were picked first, then a sample of the others. Calls come from the whole dose curve; as a rule, active = well fitted activation curve with a large enough effect; inconclusive = small, poorly fitted or top-dose-only effect; inactive = no such curve, though single readings can be large or run the other way. Where the call is inconclusive, the potency comes from a doubtful curve fit.
Test: qHTS Assay for Small Molecule Inhibitors of Mitochondrial Division or Activators of Mitochondrial Fusion; note: nearly all actives have a fitted effect of over 45% in size
Details: S. cerevisiae fusion-defective mutant growth rescue, CellTiterGlo 48 h; series mostly up to 46.1 µM
How it was run: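 S. cerevisiae fusion-defective temperature-sensitive mutants (e.g. fzo1-1, mgm1-5) grown 48 h at 37C in YPEG (ethanol/glycerol non-fermentable) medium with 23 nl compound per well; growth rescue read as CellTiterGlo luminescence.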
Potency is the fitted concentration of half-maximal effect.

Structure (SMILES) | Potency
Cc1ccc(Cl)cc1NC(=O)COC(=O)CC1CC2CCC1C2 (stereo unspecified) | inconclusive: 17.8 µM [activator, partial curve]
COc1ccc2c(-c3ccccc3)cc(SCC(N)=O)nc2c1 | inactive
O=C(CNC(=O)c1cccc(Br)c1)NCCc1nc2ccccc2[nH]1 | inactive
COc1ccc(CN2CCN(C3CCSCC3)CC2CCO)c(C)c1C (stereo unspecified) | inactive
C=CCCCCCCCCc1nc(=S)[nH][nH]1 | inconclusive: 14.1 µM [activator, partial curve]
CCOC(=O)c1cccc(NC(=O)c2cnc3ccccc3n2)c1 | inconclusive: 22.4 µM [activator, single point]
CCOC(=O)N1CCC(NC(=O)CSCc2nc(-c3ccc(OC)c(OC)c3)oc2C)CC1 | inactive
Cc1ccc(N(Cc2ccc([N+](=O)[O-])cc2)C(=O)c2ccco2)cc1C | inconclusive: 31.6 µM [activator, single point]
Cc1ccc(C=Nc2ccccc2C(N)=O)o1 | inactive
O=C(Cc1ccc(F)cc1)Nc1nnc(-c2ccc(F)cc2)o1 | inconclusive: 0.562 µM [activator, full curve, poor fit]
COc1cccc(CSc2nccn2C)c1 | inactive
Clc1ccc(OCCSCc2nc3ccccc3[nH]2)cc1 | inconclusive: 17.8 µM [activator, single point]
Cc1cccc(NC(=S)NNC(=O)c2cc3c(s2)CCC(C)C3)c1C (stereo unspecified) | inconclusive: 35.5 µM [activator, single point]
CCOC(=O)c1sc(NCc2ccco2)c(-c2nc3ccccc3s2)c1N | inactive
OCCN1CCN(CCCN2c3ccccc3Sc3ccc(C(F)(F)F)cc32)CC1 | inconclusive: 35.5 µM [activator, partial curve]
COc1ccc(C)cc1NC(=O)c1ccc2c(=O)n3c(nc2c1)CCCCC3 | inconclusive: 11.2 µM [activator, partial curve]
c1ccc(CC2=NCCN2)cc1 | inconclusive: 20 µM [activator, single point]
Cc1ccc(/C=C2\Oc3c(ccc(O)c3CN3CCN(C)CC3)C2=O)cc1 | inconclusive: 2.51 µM [activator, full curve, poor fit]
O=C(O)c1cc2ncc(-c3[nH]ncc3[N+](=O)[O-])cn2n1 | inconclusive: 17.8 µM [activator, partial curve]
Cc1nnc(SCc2ccc(C(=O)Nc3cc(Cl)ccc3C)cc2)s1 | inconclusive: 12.6 µM [activator, partial curve]
Cc1cc(C(=O)N[C@H](c2ccccc2)[C@@]2(C)C[C@@H]2[C@@H](C)C(=O)Nc2ccc3ccccc3c2)no1 | inconclusive: 35.5 µM [activator, single point]
CSc1ccc(CN(C)C(=O)c2cc(S(=O)(=O)NCc3ccccc3)ccc2C)cc1 | inconclusive: 17.8 µM [activator, partial curve]
O=C1C=C(c2cccc(Cl)c2O)C[C@@H](c2ccc(F)cc2)C1 | active: 11.2 µM
CC(C)(C)C1CCC(C(=O)NCCc2ccc(S(N)(=O)=O)cc2)CC1 (stereo unspecified) | inconclusive: 35.5 µM [activator, single point]

Entries shown so far with fluorine (3):
Structure (SMILES) | Potency
O=C(Cc1ccc(F)cc1)Nc1nnc(-c2ccc(F)cc2)o1 | inconclusive: 0.562 µM [activator, full curve, poor fit]
OCCN1CCN(CCCN2c3ccccc3Sc3ccc(C(F)(F)F)cc32)CC1 | inconclusive: 35.5 µM [activator, partial curve]
O=C1C=C(c2cccc(Cl)c2O)C[C@@H](c2ccc(F)cc2)C1 | active: 11.2 µM

Following part

Structure (SMILES) | Potency
O=C(N/N=C/c1ccncc1)c1ccc(OCc2ccccc2)cc1 | inconclusive: 5.62 µM [activator, single point]
C[C@@]12CCC=C[C@H]1[C@H](c1ccc3ccccc3c1Br)N(Cc1ccccc1)C2=O | inconclusive: 11.2 µM [activator, partial curve]
Cc1cc2c(cc1C)CSC(c1ccccc1O)SC2 | inconclusive: 11.2 µM [activator, partial curve]
COc1ccc(CCNC(=O)COC(=O)C23CC4CC(CC(C4)C2)C3)cc1 | inconclusive: 15.8 µM [activator, partial curve]
Cc1ccccc1C(=O)Nc1ccccc1NC(=O)c1ccccc1Br | inactive
CC1CCN(c2ccc(C(=O)Nc3ccc4c(c3)OCO4)cc2[N+](=O)[O-])CC1 | inconclusive: 22.4 µM [activator, single point]
Cc1cc(C)cc(NC(=O)c2sc3nc4n(c(=O)c3c2C)CCC4)c1 | inconclusive: 12.6 µM [activator, partial curve]
CC1(C)CC(=O)C=C(c2cccc(O)c2)C1=O | inactive
COc1cc(/C=N/NC(=O)c2ccc3c(c2)OCCO3)c(Br)c(Br)c1O | inconclusive: 10 µM [activator, partial curve]
COc1cc(NC(=S)NCCN2CCOCC2)cc(OC)c1OC | inactive
CC1CCN(CC(=O)Nc2ccc(S(=O)(=O)N3C(C)CCCC3C)cc2)CC1 (stereo unspecified) | inactive
CC(C(=O)N(C1CC1)C1(C(=O)Nc2ccccc2)CCCC1)N1C(=O)c2ccccc2C1=O (stereo unspecified) | inconclusive: 11.2 µM [activator, partial curve]
CN1c2ccccc2-c2nc3ccccc3n2C1c1cccs1 (stereo unspecified) | inconclusive: 31.6 µM [activator, single point]
Cc1ccc(C2Oc3ccccc3C3=C2C(c2cccs2)n2ncnc2N3)cc1 (stereo unspecified) | inactive
Cc1ccc(N(C(=O)c2snc(C(N)=O)c2N)C(C(=O)NCC2CCCO2)c2c[nH]c3ccccc23)cc1 (stereo unspecified) | inconclusive: 14.1 µM [activator, partial curve]
CC(=O)c1ccc(OCc2cc(C(=O)NC(C)c3cnn(C)c3)no2)cc1 (stereo unspecified) | inactive
Cc1nc(CCNC(=O)CC2C(=O)NCCN2Cc2ccccc2F)sc1C (stereo unspecified) | inconclusive: 35.5 µM [activator, single point]
CN(c1ccccc1)S(=O)(=O)c1cccc(NC(=O)Cc2ccc(Cl)cc2)c1 | inconclusive: 20 µM [activator, single point]
COc1ccc(C(=O)N(Cc2nc(-c3ccc(C)cc3)no2)C2CCCCC2)cc1OC | inconclusive: 31.6 µM [activator, single point]
CCN(CC)CCCNc1oc(-c2ccc(OC)cc2)nc1C#N | inactive
Cc1c(CN2CCCC(C(=O)Nc3cccc(-n4cccn4)c3)C2)cnn1C (stereo unspecified) | inactive
O=C(NC12CC3CC(CC(C3)C1)C2)c1ccc([N+](=O)[O-])o1 | inconclusive: 8.91 µM [activator, partial curve]
COc1cc(C2NC(=O)NC(c3ccccc3)=C2C(C)=O)c(Br)cc1OCC(N)=O (stereo unspecified) | inactive
c1ccc(-n2nnc(-c3cccnc3)n2)cc1 | inactive

Structure (SMILES) | Potency
CCCCOc1c(Br)cc(/C=N/O)cc1OCC | inconclusive: 8.91 µM [activator, partial curve]
Cc1c(Cl)cccc1Nc1ccccc1C(=O)O | inactive
O=C(c1cc(C2CC2)nn1-c1ccccc1)N1CCN(c2ccc(O)cc2)CC1 | inconclusive: 25.1 µM [activator, partial curve]
Brc1c(Br)c(Br)c2[nH]cnc2c1Br | inconclusive: 2.91 µM [activator, single point]
Cc1ccc(C2=CC(=O)C[C@H](c3ccc(Cl)cc3)C2)cc1 | inconclusive: 17.8 µM [activator, single point]
CCOc1ccc(S(=O)(=O)N2CCN(Cc3ccc4c(c3)OCO4)CC2)cc1Cl | inconclusive: 35.5 µM [activator, single point]
O=C1C=C(c2cccc(Cl)c2)C[C@@H](c2ccc3c(c2)OCO3)C1 | inconclusive: 20 µM [activator, single point]
COc1ccccc1NC(=S)N(CCc1ccc(OC)c(OC)c1)Cc1ccccn1 | inconclusive: 8.91 µM [activator, single point]
CCN(CC(=O)Nc1ccc(OC)cc1)CC(=O)Nc1sc2c(c1C(=O)OC)CCCC2 | inconclusive: 17.8 µM [activator, single point]
CCOc1ccc(S(=O)(=O)N2CCCCC2)cc1NC(=O)C1COc2ccccc2O1 (stereo unspecified) | inconclusive: 11.2 µM [activator, single point]
O=C1/C(=C\c2ccco2)NC(=S)N1c1ccccc1 | inactive
COc1ccccc1CC(NC(C)=O)C(=O)NC1CCN(C(=O)c2cccc(Cl)c2)CC1 (stereo unspecified) | inconclusive: 3.98 µM [activator, single point]
CCOC(=O)c1c(NC(=O)CN2C(=O)NC3(CCCCC3C)C2=O)sc(C)c1C (stereo unspecified) | inconclusive: 11.2 µM [activator, partial curve]
Cn1cccc1/C=N/NC(=O)c1cc(-c2cccs2)nc2ccccc12 | inconclusive: 35.5 µM [activator, single point]
Cc1ccc(-n2nc3c(=O)n(CCCC(=O)NCc4cccc(Cl)c4)nc(C)c3c2C)cc1 | inactive
CC1CCc2[nH]c3ccc(C(=O)N4CCCC(C(F)(F)F)C4)cc3c2C1 (stereo unspecified) | inconclusive: 12.6 µM [activator, single point]
Cc1cc(F)ccc1NCC(=O)Nc1ccc(Br)cc1C | inconclusive: 35.5 µM [activator, single point]
Cc1nn(CC(O)Cn2c3c(c4ccccc42)CCN(C)C3=O)c(C)c1Br (stereo unspecified) | inconclusive: 20 µM [activator, single point]
COCCn1c(SCC(=O)N2CCc3ccccc3C2)nc2cc(Cl)ccc2c1=O | inactive
CC(=O)Nc1ccc(-c2cc3ccccc3o2)cc1 | inactive
CC(C)(C)c1ccc(C(=O)NN=C2CCCC2)cc1 | inactive
COc1cc(OC)c(NC(=O)c2cncn2-c2ccc(F)cc2)cc1Cl | inconclusive: 11.2 µM [activator, partial curve]
O=C(Nc1nc2cc3c(cc2s1)OCCO3)C1CCCCC1 | inconclusive: 20 µM [activator, single point]

— PubChem BioAssay AID485298 (National Center for Advancing Translational Sciences (NCATS), 2010)
